# Values quoted from earlier work, collected in US20180354909A1, “SUBSTITUTED BENZIMIDAZOLIUM, PYRIDO-IMIDAZOLIUM, OR PYRAZINO-IMIDAZOLIUM COMPOUNDS AS CHEMOTHERAPEUTICS” (The Board of Regents of the University of Texas System, priority 2015, published 2018).
# For at least one compound, name, drawing or mass did not settle the structure.
# Tested on: GBM
# Conditions: GBM patients; cited from earlier work
structure (smiles),measurement,value
"Cn1nnc2c(C(N)=O)ncn2c1=O [TMZ, Temozolomide]",increase of patient survival,about two
